Results reported in publication PMC4644952.
Read-outs that look alike come from different tables or passages of the source. Results are given in words; binding and its absence hold for the method and conditions named. Binding seen in cells or lysates may run through a third protein. Some entries that bind do so weakly or less than the wild type. For some of these results: Where a sequence is shown, tags or fusion partners need not be part of it.

Chains of the proteins cited; added tags and fusions are not shown.
UniProt Q14318: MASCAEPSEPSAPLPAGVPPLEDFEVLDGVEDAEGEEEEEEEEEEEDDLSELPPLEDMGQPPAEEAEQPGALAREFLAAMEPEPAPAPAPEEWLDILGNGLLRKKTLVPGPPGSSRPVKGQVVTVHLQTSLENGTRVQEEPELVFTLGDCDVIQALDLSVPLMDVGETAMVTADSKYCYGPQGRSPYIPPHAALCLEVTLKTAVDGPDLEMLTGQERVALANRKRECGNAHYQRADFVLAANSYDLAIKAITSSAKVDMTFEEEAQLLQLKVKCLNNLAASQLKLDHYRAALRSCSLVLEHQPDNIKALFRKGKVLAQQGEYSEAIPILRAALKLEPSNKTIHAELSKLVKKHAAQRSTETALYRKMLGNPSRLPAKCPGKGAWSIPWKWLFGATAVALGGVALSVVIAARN

Columns and labels:
[1] = target: T1, Endogenous FKBP6 (human (endogenous in the Huh7-derived replicon cell line)) (UniProt O75344); experiment: co-IP; lysate of the genotype 1b Con1 replicon cell line (clone 9-13); immunoprecipitation with goat anti-FKBP6 IgG, normal goat IgG as control
T1 sequence: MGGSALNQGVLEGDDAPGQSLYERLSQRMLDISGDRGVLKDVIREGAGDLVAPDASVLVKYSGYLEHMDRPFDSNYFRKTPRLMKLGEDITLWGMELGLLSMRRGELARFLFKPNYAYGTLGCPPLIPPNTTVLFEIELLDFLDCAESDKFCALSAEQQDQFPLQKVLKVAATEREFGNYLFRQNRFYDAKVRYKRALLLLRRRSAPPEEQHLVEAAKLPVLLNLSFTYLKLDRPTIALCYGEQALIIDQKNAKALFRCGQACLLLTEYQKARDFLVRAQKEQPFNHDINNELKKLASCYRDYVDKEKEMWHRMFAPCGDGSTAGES

[2] = target: HA-tagged FKBP8 (UniProt Q14318); experiment: co-IP; FLAG- and HA-tagged proteins co-expressed in 293T cells, lysed 48 h post-transfection; immunoprecipitation with anti-FLAG or anti-HA antibody, Western blotting
[3] = target: T2, HA-tagged FKBP6 (UniProt O75344); experiment: as above
T2 sequence: T1 sequence

[4] = target: FLAG-tagged NS5A (Con1 strain) (hepatitis C virus genotype 1b, strain Con1) (UniProt Q9WMX2); experiment: as above
[5] = target: T3, FLAG-tagged FKBP6 (UniProt O75344); experiment: as above
T3 sequence: T1 sequence

[6] = target: FLAG-tagged FKBP8 (UniProt Q14318); experiment: co-IP; FLAG- and HA-tagged FKBP6 or FKBP8 co-expressed in 293T cells; 1% Nonidet P-40 lysis buffer (50 mM HEPES pH 7.4, 150 mM NaCl, 0.1 mM EDTA); half of the lysate mixed with DMSO, half with 80 μM DM-CHX; anti-FLAG or anti-HA immunoprecipitation; DM-CHX impaired the complexes
[7] = target: T3, FLAG-tagged FKBP6; experiment: as above
[8] = target: FLAG-tagged NS5A (Con1 strain) (hepatitis C virus genotype 1b, strain Con1) (UniProt Q9WMX2); experiment: co-IP; FLAG- and HA-tagged proteins co-expressed in 293T cells, lysed 48 h post-transfection; immunoprecipitation with anti-FLAG or anti-HA antibody, Western blotting; remark: listed apart in the source
[9] = target: T3, FLAG-tagged FKBP6; experiment: as above; remark: listed apart in the source
[10] = target: HA-tagged FKBP8 (UniProt Q14318); experiment: as above; remark: listed apart in the source
[11] = target: T4, HA-tagged FKBP5 (UniProt Q13451); experiment: as above
T4 sequence: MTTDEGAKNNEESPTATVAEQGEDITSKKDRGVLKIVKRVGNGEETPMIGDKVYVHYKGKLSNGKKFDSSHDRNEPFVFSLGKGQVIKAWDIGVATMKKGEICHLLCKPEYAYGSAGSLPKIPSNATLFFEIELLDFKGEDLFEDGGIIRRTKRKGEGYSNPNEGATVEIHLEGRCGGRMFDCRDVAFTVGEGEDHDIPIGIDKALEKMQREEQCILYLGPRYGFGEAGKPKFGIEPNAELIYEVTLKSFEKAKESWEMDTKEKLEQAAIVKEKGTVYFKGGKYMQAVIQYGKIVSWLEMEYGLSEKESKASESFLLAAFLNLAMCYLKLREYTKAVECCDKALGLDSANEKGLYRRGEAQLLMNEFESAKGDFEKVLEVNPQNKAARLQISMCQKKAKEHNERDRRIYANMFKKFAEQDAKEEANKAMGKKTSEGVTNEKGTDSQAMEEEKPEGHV

[12] = target: T2, HA-tagged FKBP6; experiment: as above; remark: listed apart in the source

NS5A expressed from the Con1 subgenomic replicon (from UniProt Q9WMX2 1973-2419)
binding [1]: binds

FLAG-tagged NS5A (Con1 strain) (from UniProt Q9WMX2 1973-2419)
binding [2]: binds | binding [3]: binds

HA-tagged FKBP8 (from UniProt Q14318 1-412)
binding [4]: binds | binding [5]: binds | binding [6]: binds | binding [7]: binds

B1: HA-tagged FKBP6 (protein, UniProt O75344 1-327)
chain: T1 sequence
binding [8]: binds | binding [9]: binds | binding [7]: binds

B2: FLAG-tagged FKBP6 (protein, UniProt O75344 1-327)
chain: T1 sequence
binding [10]: binds | binding [11]: no binding | binding [12]: binds

B3: HA-tagged FKBP4 (protein, UniProt Q02790 1-459)
chain: MTAEEMKATESGAQSAPLPMEGVDISPKQDEGVLKVIKREGTGTEMPMIGDRVFVHYTGWLLDGTKFDSSLDRKDKFSFDLGKGEVIKAWDIAIATMKVGEVCHITCKPEYAYGSAGSPPKIPPNATLVFEVELFEFKGEDLTEEEDGGIIRRIQTRGEGYAKPNEGAIVEVALEGYYKDKLFDQRELRFEIGEGENLDLPYGLERAIQRMEKGEHSIVYLKPSYAFGSVGKEKFQIPPNAELKYELHLKSFEKAKESWEMNSEEKLEQSTIVKERGTVYFKEGKYKQALLQYKKIVSWLEYESSFSNEEAQKAQALRLASHLNLAMCHLKLQAFSAAIESCNKALELDSNNEKGLFRRGEAHLAVNDFELARADFQKVLQLYPNNKAAKTQLAVCQQRIRRQLAREKKLYANMFERLAEEENKAKAEASSGDHPTDTEMKEEQKSNTAGSQSQVETEA
binding [8]: no binding

B4: HA-tagged FKBP5 (protein, UniProt Q13451 1-457)
chain: T4 sequence
binding [8]: no binding | binding [9]: no binding
